Consider two molecules from patent US20080064052A1, “Crystal of a Receptor-Ligand Complex and methods of use” (priority 2006, published 2008).

Amino acid sequences for entries named in this document (tags omitted). A change or cut given only in a name is not applied to a line headed by its entry.
UniProt P54760: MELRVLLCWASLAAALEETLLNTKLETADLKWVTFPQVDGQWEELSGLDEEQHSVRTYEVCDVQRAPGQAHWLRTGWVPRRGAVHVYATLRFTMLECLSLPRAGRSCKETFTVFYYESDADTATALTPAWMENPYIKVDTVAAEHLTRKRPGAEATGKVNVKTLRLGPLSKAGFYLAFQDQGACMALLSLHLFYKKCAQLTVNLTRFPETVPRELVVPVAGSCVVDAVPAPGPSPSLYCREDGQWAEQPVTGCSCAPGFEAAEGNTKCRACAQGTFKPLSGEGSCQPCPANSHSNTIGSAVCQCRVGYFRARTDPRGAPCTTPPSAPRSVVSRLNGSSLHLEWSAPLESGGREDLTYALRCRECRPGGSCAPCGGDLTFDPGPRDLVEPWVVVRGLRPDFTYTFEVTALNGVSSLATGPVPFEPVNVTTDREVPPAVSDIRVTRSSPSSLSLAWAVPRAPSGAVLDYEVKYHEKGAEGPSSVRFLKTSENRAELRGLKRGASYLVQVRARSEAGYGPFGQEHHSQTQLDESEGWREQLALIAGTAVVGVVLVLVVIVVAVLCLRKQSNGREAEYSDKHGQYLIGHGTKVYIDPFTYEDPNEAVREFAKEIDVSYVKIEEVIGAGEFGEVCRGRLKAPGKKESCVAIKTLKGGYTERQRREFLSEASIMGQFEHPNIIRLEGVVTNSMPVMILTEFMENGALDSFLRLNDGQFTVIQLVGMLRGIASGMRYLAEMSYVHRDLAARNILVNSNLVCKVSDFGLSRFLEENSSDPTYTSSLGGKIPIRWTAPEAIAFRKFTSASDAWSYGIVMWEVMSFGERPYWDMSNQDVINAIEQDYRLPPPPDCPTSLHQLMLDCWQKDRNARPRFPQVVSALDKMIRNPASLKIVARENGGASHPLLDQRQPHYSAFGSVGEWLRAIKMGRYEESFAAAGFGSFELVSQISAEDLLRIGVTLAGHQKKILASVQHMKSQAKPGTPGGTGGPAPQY

Assay [1] concerns the target T1, human EphB4 ephrin-binding domain, EphB4 (17-196) (human) (UniProt P54760).
T1 sequence: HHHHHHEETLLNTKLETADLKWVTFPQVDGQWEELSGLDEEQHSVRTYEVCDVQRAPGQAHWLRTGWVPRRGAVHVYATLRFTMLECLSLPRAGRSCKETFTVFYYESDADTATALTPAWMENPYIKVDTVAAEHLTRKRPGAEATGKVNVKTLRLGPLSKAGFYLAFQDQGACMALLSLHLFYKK
In words: co-crystal structure at 1.65 Å.

The target of assay [2] is T2, mouse EphB4 ectodomain Fc fusion protein (mouse EphB4-Fc-His, R&D Systems) (mouse) (UniProt P54761).
T2 sequence (looked up): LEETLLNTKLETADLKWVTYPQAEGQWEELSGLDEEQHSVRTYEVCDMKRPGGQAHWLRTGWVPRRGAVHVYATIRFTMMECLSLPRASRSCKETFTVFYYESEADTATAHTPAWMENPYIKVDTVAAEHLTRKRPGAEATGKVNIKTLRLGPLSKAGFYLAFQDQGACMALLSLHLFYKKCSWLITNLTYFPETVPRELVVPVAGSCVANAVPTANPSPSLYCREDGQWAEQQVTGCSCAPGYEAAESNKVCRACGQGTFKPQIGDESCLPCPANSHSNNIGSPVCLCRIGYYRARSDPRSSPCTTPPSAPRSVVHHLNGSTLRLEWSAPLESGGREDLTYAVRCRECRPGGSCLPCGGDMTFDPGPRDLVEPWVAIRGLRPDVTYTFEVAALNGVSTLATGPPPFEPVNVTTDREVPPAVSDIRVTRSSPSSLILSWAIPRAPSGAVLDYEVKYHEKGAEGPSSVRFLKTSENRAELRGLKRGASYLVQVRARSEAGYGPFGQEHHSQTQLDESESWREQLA
As to the kind of experiment: competition ELISA: inhibition of mouse ephrin-B2 AP binding to immobilized mouse EphB4 ectodomain Fc; same ELISA; the cell is a lower limit (>10 µM), not a finding of no binding. (In general: An ELISA detects its analyte on a solid surface through an enzyme-linked reagent.)

Results are given in words; binding and its absence hold for the method and conditions named. Some entries that bind do so weakly or less than the wild type. For some assays here: Where a sequence is shown, tags or fusion partners need not be part of it.

B1: TNYL-RAW peptide (TNYLFSPNGPIARAW) (peptide)
peptide: TNYLFSPNGPIARAW
notes: Synthetic 15-mer (Biopeptide, Inc.); Peptide positions are printed as P1 to P15; also called antagonistic peptide
Take B1: the binding result in assay [1] is listed as “binds”.

B2: LFSP-RAW peptide (LFSPNGPIARAW) (peptide)
peptide: LFSPNGPIARAW
notes: TNYL-RAW without Thr-P1, Asn-P2 and Tyr-P3
With B2, the binding entry in assay [2] is on record as “no binding (tested: 10 µM)”.
